Some of the results follow.
Compound: Cc1ccc(-n2nc(C(C)(C)C)cc2NC(=O)Nc2ccc(OCCN3CCOCC3)c3ccccc23)cc1 [doramapimod]
Assay: log2 fold change, soluble protein after heating vs DMSO (PISA); higher = thermal stabilisation; K562 cells, 10 uM, 30 min; active = over 0.2 and 3.5 SD of the protein, either way, in both replicates (recomputed)
Procedure, shortened: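 Thermal stability values are relative to control samples and come from duplicates. They are expressed as log2 fold changes. For measurement, K562 cells (2×10^6 cells/mL) received 10 μM compound for 30 min, and aliquots were heated for 3 min over 48°C-58°C, pooled, and extracted at 4°C in PBS with 0.5% NP-40. Soluble protein, the supernatant after 21,000xg for 90 min, was quantified by TMTpro 16plex LC-MS/MS with equalised channel sums.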

By UniProt entry, the sequences of proteins in these tests, tags left out. Where a name states a change or a piece, a line headed by the entry shows the natural chain unless it says otherwise.
UniProt Q9NY12: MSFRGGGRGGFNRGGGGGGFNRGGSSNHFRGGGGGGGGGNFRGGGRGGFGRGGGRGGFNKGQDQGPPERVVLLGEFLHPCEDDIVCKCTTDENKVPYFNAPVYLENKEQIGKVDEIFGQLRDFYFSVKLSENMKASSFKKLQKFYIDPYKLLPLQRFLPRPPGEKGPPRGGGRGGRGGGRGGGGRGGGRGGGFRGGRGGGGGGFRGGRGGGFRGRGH
UniProt Q86YP4: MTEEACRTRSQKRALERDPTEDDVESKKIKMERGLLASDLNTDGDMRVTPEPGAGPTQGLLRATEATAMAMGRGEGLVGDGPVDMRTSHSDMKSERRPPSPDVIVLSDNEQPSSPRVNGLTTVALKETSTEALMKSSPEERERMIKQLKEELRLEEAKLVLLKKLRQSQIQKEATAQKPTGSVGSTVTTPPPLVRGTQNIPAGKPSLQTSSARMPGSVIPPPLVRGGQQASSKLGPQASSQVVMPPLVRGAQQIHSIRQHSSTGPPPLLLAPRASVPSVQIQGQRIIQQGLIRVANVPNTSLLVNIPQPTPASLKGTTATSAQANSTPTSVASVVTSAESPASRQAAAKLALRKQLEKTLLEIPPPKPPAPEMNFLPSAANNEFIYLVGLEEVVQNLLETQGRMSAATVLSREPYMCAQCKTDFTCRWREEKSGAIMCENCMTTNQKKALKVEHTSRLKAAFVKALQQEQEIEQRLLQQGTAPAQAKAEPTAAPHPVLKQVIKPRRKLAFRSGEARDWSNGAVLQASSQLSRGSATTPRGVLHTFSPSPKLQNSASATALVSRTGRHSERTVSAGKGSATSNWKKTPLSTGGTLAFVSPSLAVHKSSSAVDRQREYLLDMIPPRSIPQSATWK
UniProt Q9BQS8: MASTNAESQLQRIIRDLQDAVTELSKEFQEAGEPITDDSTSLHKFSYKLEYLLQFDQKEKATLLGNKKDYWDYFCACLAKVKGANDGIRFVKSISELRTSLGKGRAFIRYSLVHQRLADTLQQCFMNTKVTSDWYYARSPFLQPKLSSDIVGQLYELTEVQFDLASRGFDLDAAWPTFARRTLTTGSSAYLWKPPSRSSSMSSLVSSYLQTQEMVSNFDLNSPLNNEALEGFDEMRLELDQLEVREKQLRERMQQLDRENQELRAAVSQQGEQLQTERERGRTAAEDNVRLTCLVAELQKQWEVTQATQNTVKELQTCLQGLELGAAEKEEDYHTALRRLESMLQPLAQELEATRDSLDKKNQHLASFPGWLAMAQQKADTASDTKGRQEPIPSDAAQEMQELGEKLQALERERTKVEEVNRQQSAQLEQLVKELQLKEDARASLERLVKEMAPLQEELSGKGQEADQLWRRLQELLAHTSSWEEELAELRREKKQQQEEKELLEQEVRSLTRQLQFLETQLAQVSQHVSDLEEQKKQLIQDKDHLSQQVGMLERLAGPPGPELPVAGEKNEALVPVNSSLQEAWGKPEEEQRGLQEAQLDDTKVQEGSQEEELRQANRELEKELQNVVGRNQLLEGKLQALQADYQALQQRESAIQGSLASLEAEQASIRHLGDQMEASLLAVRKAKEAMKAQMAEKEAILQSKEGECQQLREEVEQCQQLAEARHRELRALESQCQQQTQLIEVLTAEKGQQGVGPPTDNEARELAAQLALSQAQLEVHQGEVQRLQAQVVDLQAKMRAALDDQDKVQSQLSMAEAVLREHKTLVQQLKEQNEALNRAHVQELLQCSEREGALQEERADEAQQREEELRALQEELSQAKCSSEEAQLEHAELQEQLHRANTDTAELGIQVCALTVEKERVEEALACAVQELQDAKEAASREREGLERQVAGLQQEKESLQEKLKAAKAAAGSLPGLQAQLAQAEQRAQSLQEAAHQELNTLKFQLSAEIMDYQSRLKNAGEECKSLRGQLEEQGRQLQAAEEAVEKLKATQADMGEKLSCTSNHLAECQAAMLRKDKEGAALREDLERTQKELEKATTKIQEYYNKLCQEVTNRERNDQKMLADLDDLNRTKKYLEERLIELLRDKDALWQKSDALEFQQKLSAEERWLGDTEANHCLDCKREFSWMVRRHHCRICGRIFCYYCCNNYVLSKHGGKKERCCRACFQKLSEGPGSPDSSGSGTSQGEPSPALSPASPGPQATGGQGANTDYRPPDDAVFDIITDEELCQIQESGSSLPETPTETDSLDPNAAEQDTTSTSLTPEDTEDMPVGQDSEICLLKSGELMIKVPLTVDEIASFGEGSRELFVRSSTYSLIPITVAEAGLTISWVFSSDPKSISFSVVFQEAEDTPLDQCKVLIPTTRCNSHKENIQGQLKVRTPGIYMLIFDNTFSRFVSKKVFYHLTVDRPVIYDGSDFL
UniProt Q9UN86: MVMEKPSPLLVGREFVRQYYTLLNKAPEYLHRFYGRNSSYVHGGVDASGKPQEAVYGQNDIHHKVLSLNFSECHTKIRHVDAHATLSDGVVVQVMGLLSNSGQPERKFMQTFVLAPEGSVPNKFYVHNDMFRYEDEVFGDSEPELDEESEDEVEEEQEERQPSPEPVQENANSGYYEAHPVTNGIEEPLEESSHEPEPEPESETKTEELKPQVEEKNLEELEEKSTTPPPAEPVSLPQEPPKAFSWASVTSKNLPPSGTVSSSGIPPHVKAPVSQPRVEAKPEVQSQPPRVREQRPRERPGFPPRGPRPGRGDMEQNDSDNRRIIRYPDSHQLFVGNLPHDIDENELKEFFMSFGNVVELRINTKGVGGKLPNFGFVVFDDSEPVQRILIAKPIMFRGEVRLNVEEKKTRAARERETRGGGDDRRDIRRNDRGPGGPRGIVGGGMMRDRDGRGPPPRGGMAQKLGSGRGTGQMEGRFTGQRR
UniProt Q86SF2: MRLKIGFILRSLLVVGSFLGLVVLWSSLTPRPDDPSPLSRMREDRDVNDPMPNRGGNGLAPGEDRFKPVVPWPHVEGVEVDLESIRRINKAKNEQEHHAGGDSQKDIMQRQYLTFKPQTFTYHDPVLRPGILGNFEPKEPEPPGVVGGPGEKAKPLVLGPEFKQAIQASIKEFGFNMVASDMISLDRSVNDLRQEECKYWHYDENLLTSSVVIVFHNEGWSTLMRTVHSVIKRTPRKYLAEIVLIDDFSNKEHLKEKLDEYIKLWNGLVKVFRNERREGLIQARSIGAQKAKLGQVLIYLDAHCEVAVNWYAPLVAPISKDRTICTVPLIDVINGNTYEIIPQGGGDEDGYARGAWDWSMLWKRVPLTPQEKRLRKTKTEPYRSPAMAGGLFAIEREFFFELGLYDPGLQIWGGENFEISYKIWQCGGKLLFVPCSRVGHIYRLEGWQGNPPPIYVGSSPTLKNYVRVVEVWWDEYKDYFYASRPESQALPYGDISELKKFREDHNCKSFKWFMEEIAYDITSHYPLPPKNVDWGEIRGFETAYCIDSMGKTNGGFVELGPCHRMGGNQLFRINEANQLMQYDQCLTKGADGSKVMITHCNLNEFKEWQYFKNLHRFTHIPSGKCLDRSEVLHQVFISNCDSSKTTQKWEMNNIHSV
UniProt P30047: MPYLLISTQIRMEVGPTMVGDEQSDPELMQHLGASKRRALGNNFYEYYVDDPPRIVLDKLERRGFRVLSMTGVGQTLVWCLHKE
UniProt Q96AE4: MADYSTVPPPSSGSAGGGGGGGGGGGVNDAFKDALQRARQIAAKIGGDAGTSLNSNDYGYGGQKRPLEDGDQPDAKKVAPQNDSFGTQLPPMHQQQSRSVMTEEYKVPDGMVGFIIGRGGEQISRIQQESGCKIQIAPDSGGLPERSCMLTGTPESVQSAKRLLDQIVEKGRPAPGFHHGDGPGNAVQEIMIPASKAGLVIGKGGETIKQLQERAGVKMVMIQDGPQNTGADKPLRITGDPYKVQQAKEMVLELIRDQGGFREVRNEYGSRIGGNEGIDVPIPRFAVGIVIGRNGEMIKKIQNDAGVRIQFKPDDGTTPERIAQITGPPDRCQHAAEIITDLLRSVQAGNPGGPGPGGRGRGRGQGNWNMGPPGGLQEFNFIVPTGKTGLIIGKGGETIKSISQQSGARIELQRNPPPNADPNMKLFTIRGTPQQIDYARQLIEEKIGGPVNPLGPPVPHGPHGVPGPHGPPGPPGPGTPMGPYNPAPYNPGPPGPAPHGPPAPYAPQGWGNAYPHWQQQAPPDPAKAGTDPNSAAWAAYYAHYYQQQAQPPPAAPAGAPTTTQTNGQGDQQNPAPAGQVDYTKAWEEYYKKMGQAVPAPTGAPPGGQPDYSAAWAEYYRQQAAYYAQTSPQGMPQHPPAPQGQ
UniProt Q6NT46: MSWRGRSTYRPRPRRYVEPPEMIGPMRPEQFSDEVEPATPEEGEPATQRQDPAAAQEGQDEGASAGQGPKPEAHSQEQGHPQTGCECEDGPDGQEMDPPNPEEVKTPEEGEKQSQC
UniProt Q7Z7M9: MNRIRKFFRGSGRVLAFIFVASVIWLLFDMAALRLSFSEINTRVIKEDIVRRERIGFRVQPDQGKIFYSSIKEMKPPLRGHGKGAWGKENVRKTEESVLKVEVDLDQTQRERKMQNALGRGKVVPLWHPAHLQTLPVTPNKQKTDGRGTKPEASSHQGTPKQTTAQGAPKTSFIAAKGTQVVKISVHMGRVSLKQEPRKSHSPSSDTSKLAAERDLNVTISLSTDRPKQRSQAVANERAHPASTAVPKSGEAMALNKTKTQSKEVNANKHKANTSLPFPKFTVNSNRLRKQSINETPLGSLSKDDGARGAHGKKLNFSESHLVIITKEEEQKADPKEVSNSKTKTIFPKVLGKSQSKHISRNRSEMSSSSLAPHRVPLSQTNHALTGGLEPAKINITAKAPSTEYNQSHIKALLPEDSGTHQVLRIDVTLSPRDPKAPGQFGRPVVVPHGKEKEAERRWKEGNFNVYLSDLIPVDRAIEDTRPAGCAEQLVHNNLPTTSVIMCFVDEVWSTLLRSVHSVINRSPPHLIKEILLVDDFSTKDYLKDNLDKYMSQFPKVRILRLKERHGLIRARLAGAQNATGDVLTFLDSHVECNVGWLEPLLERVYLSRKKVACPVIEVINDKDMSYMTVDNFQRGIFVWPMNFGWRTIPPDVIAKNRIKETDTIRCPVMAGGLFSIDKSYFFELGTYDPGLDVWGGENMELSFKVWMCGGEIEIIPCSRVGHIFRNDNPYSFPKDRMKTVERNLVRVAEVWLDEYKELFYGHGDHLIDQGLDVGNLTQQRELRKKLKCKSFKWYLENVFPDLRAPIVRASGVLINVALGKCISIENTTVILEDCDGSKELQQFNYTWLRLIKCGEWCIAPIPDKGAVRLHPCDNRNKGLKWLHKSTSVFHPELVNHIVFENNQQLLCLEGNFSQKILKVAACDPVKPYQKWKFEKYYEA
UniProt Q14376: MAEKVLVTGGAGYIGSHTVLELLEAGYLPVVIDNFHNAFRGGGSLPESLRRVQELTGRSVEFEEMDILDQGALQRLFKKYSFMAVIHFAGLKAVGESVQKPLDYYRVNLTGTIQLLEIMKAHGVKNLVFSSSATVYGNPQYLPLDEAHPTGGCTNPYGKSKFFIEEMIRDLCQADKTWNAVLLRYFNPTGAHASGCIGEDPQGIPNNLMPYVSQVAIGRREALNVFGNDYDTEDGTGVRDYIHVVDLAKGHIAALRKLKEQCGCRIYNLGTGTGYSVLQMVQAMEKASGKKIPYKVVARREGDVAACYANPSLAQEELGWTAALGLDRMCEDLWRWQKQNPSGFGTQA
UniProt P11413, whole entry, looked up: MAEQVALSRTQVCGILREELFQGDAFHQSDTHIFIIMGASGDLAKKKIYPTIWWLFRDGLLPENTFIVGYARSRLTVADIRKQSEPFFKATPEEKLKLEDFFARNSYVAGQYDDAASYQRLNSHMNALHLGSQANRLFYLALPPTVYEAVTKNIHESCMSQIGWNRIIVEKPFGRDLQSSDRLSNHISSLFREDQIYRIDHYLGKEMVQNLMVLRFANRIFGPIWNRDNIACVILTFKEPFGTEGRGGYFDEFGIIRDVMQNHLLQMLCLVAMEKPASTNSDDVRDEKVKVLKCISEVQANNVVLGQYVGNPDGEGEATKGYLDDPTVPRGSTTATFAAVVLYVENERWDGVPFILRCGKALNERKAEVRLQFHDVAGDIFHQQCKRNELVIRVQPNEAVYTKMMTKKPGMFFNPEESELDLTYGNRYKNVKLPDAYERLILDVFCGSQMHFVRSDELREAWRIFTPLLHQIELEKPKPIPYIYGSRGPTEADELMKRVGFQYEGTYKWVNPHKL
UniProt Q96C23: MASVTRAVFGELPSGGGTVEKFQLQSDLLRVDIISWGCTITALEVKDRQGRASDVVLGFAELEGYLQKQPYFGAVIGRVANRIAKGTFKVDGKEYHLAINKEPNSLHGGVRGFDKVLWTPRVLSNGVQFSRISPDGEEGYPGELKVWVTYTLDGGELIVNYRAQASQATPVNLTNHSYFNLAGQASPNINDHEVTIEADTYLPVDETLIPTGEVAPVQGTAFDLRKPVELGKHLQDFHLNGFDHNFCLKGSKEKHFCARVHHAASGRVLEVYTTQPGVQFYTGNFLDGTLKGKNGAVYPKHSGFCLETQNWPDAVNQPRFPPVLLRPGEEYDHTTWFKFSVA

Target | log2 fold change
GCAT isoform 2 (UniProt O75600) | inactive: 0
GAR1 (UniProt Q9NY12) | inactive: 0.164
GATAD2A isoform 3 (UniProt Q86YP4) | inactive: 0.102
FXR1 (UniProt P51114) | inactive: 0.099
FYCO1 isoform 4 (UniProt Q9BQS8) | inactive: 0.063
G3BP2 (UniProt Q9UN86) | inactive: 0.163
GALNT7 (UniProt Q86SF2) | inactive: -0.033
GAN (UniProt Q9H2C0) | inactive: -0.009
FRG1 (UniProt Q14331) | inactive: 0.015
GGA3 (UniProt Q9NZ52) | inactive: -0.021
GCHFR (UniProt P30047) | inactive: -0.021
FUS (UniProt P35637) | inactive: 0.01
GALK2 (UniProt Q01415) | inactive: -0.002
GAMT (UniProt Q14353) | inactive: 0.026
FTH1 (UniProt P02794) | inactive: 0.032
GCLC (UniProt P48506) | inactive: -0.015
FUBP1 (UniProt Q96AE4) | inactive: 0.032

Target | log2 fold change
GAGE2A (UniProt Q6NT46) | inactive: 0.057
FXR2 (UniProt P51116) | inactive: 0.118
G3BP1 (UniProt Q13283) | inactive: 0.064
GEMIN4 (UniProt P57678) | inactive: 0.163
GGCT (UniProt O75223) | inactive: -0.027
FTSJ1 (UniProt Q9UET6) | inactive: 0.025
GALNT12 (UniProt Q8IXK2) | inactive: 0.008
GALNT5 (UniProt Q7Z7M9) | inactive: 0.01
GANAB isoform 2 (UniProt Q14697) | inactive: 0.028
GGA1 isoform 6 (UniProt Q9UJY5) | inactive: -0.024
GGH (UniProt Q92820) | inactive: 0.006
GALE (UniProt Q14376) | inactive: -0.058
GALNS (UniProt P34059) | inactive: 0.025
GHITM (UniProt Q9H3K2) | inactive: -0.011
G6PD isoform 2 (UniProt P11413) | inactive: 0.018
GALM (UniProt Q96C23) | inactive: -0.017
GFM1 (UniProt Q96RP9) | inactive: -0.069

A few values from the results shown.
log2 fold change, GGA3 (UniProt Q9NZ52) reads inactive: -0.021
log2 fold change, GCLC (UniProt P48506) reads inactive: -0.015
